Test results as given in article PMC6530875.
No constants are given. Whether binding was seen depends on the method and setting. In cells and extracts the contact can be indirect. Some entries that bind do so weakly or less than the wild type.

Chains of the proteins cited; added tags and fusions are not shown.
UniProt P06788: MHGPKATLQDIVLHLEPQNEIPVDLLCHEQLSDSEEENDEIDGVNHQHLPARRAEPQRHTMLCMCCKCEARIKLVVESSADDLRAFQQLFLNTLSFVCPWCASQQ

Biological target: HPV-18 E7 oncoprotein, wild type (human papillomavirus type 18 (endogenous in C4-1)) (UniProt P06788)
Assay: co-IP; lysates of wild type and CKII mutant C4-1 cells (50mM HEPES pH7.4, 150mM NaCl, 1mM MgCl2, 1mM NaF, 1% Triton-x-100); anti-HPV-18 E7 antibody overnight at 4°C, protein A beads 90 minutes at 4°C, four washes in lysis buffer; Western blot for pRB; anti-GFP IgG as control

B1: pRb (protein, UniProt P06400 1-928)
chain: MPPKTPRKTAATAAAAAAEPPAPPPPPPPEEDPEQDSGPEDLPLVRLEFEETEEPDFTALCQKLKIPDHVRERAWLTWEKVSSVDGVLGGYIQKKKELWGICIFIAAVDLDEMSFTFTELQKNIEISVHKFFNLLKEIDTSTKVDNAMSRLLKKYDVLFALFSKLERTCELIYLTQPSSSISTEINSALVLKVSWITFLLAKGEVLQMEDDLVISFQLMLCVLDYFIKLSPPMLLKEPYKTAVIPINGSPRTPRRGQNRSARIAKQLENDTRIIEVLCKEHECNIDEVKNVYFKNFIPFMNSLGLVTSNGLPEVENLSKRYEEIYLKNKDLDARLFLDHDKTLQTDSIDSFETQRTPRKSNLDEEVNVIPPHTPVRTVMNTIQQLMMILNSASDQPSENLISYFNNCTVNPKESILKRVKDIGYIFKEKFAKAVGQGCVEIGSQRYKLGVRLYYRVMESMLKSEEERLSIQNFSKLLNDNIFHMSLLACALEVVMATYSRSTSQNLDSGTDLSFPWILNVLNLKAFDFYKVIESFIKAEGNLTREMIKHLERCEHRIMESLAWLSDSPLFDLIKQSKDREGPTDHLESACPLNLPLQNNHTAADMYLSPVRSPKKKGSTTRVNSTANAETQATSAFQTQKPLKSTSLSLFYKKVYRLAYLRLNTLCERLLSEHPELEHIIWTLFQHTLQNEYELMRDRHLDQIMMCSMYGICKVKNIDLKFKIIVTAYKDLPHAVQETFKRVLIKEEEYDSIIVFYNSVFMQRLKTNILQYASTRPPTLSPIPHIPRSPYKFPSSPLRIPGGNIYISPLKSPYKISEGLPTPTKMTPRSRILVSIGESFGTSEKFQKINQMVCNSDRVLKRSAEGSNPPKPLKKLRFDIEGSDEADGSKHLPGESKFQQKLAEMTSTRTRMQKQKMNDSMDTSNKEEK
- binding: binds
